Literature values in patent publication US20240083845A1 (priority 2020, published 2024).
At least one structure is not confirmed: it was looked up by name or label, or the drawing left a doubt.

System: Mpro proteases from eight other coronaviruses including SARS, MERS, HKU1, HKU4, HKU5, NL63, FIPV and IBV
Conditions: cited from earlier work

Structure (SMILES)	inhibitory activity at other coronavirus Mpro proteases
CC(C)(C)NC(=O)N[C@H](C(=O)N1C[C@H]2[C@@H]([C@H]1C(=O)NC(CC1CCC1)C(=O)C(N)=O)C2(C)C)C(C)(C)C (some centres unmarked) [boceprevir]	able to inhibit all coronavirus proteases tested except NL63
CCC[C@H](NC(=O)[C@@H]1[C@H]2CCC[C@H]2CN1C(=O)[C@@H](NC(=O)[C@@H](NC(=O)c1cnccn1)C1CCCCC1)C(C)(C)C)C(=O)C(=O)NC1CC1 [telaprevir]	inhibitory activity shown at SARS, HKU4, HKU5, NL63 and IBV
